Library screen at single concentrations

Chains of the proteins cited; added tags and fusions are not shown. Residues count along the entry.
UniProt A4I591, 1-473: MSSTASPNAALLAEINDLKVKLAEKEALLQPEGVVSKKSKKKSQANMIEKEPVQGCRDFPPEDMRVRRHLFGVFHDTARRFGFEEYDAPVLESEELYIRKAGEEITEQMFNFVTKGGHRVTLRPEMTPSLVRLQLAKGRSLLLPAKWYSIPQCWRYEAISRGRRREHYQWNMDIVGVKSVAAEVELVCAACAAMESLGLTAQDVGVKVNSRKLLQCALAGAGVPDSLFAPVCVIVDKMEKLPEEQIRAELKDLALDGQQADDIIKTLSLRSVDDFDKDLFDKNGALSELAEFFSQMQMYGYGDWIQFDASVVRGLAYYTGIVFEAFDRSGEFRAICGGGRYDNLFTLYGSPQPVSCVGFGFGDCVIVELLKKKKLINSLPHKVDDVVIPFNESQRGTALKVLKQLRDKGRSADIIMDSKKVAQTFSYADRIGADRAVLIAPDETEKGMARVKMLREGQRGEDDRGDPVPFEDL
UniProt P9WPC5, whole entry: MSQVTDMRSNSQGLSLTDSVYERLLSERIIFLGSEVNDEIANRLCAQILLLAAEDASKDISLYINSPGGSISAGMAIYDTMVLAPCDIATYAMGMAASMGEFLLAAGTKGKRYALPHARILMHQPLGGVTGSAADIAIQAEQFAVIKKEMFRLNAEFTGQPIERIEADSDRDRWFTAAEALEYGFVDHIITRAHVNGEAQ
UniProt P9WPC3, whole entry partner: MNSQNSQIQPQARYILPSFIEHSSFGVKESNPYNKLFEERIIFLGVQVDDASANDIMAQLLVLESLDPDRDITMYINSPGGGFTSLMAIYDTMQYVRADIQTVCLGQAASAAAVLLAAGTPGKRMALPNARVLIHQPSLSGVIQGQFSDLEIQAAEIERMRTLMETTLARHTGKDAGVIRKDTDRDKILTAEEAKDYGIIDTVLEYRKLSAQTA
UniProt Q4DA54, 1-478: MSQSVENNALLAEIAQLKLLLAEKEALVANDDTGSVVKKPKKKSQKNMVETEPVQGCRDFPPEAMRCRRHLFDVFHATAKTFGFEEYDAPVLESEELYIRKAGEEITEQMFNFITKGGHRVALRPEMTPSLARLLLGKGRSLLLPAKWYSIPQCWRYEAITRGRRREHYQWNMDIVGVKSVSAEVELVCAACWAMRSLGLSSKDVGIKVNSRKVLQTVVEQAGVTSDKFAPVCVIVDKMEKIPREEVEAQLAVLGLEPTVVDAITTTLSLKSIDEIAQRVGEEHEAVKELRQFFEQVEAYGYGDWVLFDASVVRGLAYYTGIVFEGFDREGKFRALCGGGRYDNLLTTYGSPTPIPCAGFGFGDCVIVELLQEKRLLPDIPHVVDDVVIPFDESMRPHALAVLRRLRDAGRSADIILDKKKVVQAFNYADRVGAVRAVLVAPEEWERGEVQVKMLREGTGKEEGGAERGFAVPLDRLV

Values are the deposited “Percent Effect”, in %.
The record does not define 0% and 100%; most values in the screen are far below 50% and negative numbers occur (in some assays of this library far below -100).
Compounds were drawn at random from those tested, without regard to their results.
A dash means the value is not listed here; it may have been measured.

A: 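Assay of Toxoplasma gondii numbers, read through their beta-galactosidase reporter with a colour substrate. Compounds at 10 µM. Higher reads as fewer parasites (inferred from which compounds were picked for retests). Of about 67,000 compounds tested this way, about 260 (0.38%) reached 50% or more in at least one test.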
B: 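Whole-parasite assay of Trypanosoma brucei over 72 hours; the read-out is not stated. Concentration: 30 µM. Direction is inferred from retests: higher values go with stronger inhibition. Values scatter widely below zero; nearly all retest evidence comes from the higher of the two concentrations used. About 64,000 compounds were tested under these conditions; 1.5% (about 940) showed 50% or more at least once.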
C: 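Enzyme assay of histidyl-tRNA synthetase; the read-out is not stated. Target: Histidine-tRNA ligase, Leishmania infantum (UniProt A4I591). Concentration: 30 µM. The record gives no direction; compounds that gave an IC50 in retests scored well above the rest, so higher reads as stronger inhibition. The assay is labelled LdHisRS but filed under L. infantum. Size under these conditions: about 69,000 compounds, about 410 of them at 50% or above in at least one test.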
D: 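Protease assay of ClpP1P2, read by the AMC dye that it sets free. Target: ClpP1P2, Mycobacterium tuberculosis (UniProt P9WPC5 and UniProt P9WPC3). Compounds at 50 µM. Higher reads as stronger inhibition, judged from the few compounds that gave an IC50. Most other retested compounds had strongly negative values. Size under these conditions: about 69,000 compounds, about 10 of them at 50% or above in at least one test.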
E: 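Enzyme assay of histidyl-tRNA synthetase; the read-out is not stated. Target: Histidine-tRNA ligase, Trypanosoma cruzi CL Brener (UniProt Q4DA54). Compounds at 30 µM. Direction is inferred from retests: higher values go with stronger inhibition. Of about 69,000 compounds tested this way, about 31 (0.045%) reached 50% or more in at least one test.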

SMILES,A,B,C,D,E
CC1CN(CC(=O)Nc2ccncc2)CCN1Cc1nccn1C (configuration not stated),-1.407%,-,22.02%,-21.18%,13.12%
Cc1ncc2c(n1)CN(CC1CCCCO1)CC2 (configuration not stated),5.031%,-9.148%,25.71%,-5.737%,13.27%
COc1cccc([C@@H]2CN(C3CCCC3)C[C@H]2C(=O)O)c1,6.911%,-21.77%,9.333%,-3.384%,8.671%
CC(=O)N1CCC1c1cc(NC2CCOCC2)nc(C)n1 (configuration not stated),-20%,-3.16%,5.755%,-8.403%,4.215%
Clc1cc(N2CCN3CCCCC3C2)nc2[nH]ccc12 (configuration not stated),7.58%,-18.73%,28.57%,0.2781%,16%
O=C1NCCCC12CCN(Cc1ccc(SC3CCCCC3)o1)C2 (configuration not stated),-7.18%,4.804%,22.92%,-5.471%,-3.797%
CC(=O)N1C[C@H](NC(=O)c2cscn2)[C@@H]2OCCC[C@@H]21,-,-,10.53%,4.05%,0.5525%
O=C(NCc1cccnc1)N1CCc2ncnc(C3CC3)c2CC1,-,-,10.53%,-5.9%,6.557%
CC(C)OCc1nn(C)c2c1CCN(Cc1ccco1)C2.O=C(O)C(F)(F)F,-2.538%,-89.18%,-,-,-
COCCO[C@H]1CCN(C(=O)c2cnccn2)[C@H]1Cc1ccncc1,1.872%,-25.61%,5%,-2.17%,4.082%
COc1ncccc1NC(=O)N(Cc1ccc(C)o1)C1CC1,8.47%,2.338%,13.7%,3.095%,-0.7634%
COc1cccc(-n2c(C)cc(C(=O)NC(C)(C)C(N)=O)c2C)c1,-22%,-,22.03%,-4.66%,2.286%
CCCc1nnsc1C(=O)N1CCCC1(C)C(=O)N1CCOCC1 (configuration not stated),-2.676%,4.06%,12.77%,-0.5451%,4.651%
O=C(CCN1CCCC(CC2CC2)(C(=O)O)C1)NC1CCCC1 (configuration not stated),21.75%,-36.2%,-7.317%,-7.897%,-0.4808%
CN(C)CCN(Cc1ccccn1)Cc1ccnn1C1CCCCO1 (configuration not stated),-,-,14.18%,-15.19%,8.527%
CN(CC1CCOC1)c1ncc(Br)cn1 (configuration not stated),0.726%,-20.64%,11.7%,-4.741%,4.04%
Cc1cc(CN2C[C@@H]3COC[C@H](C(=O)N4CCCCO4)[C@@H]3C2)no1,-,-,20%,-6.715%,6.863%
Cc1nc[nH]c1CN(Cc1ccccc1)C1CC(C)(C)NC(C)(C)C1,-,-,5.755%,19.76%,8.046%
Cn1ccnc1CN(Cc1cccnc1)CC1CCCO1 (configuration not stated),19.39%,-68.68%,1.205%,12.6%,4.878%
CC(C)(C)c1ncc2c(n1)CN(C(=O)c1ccncc1)C2,1.879%,-0.7468%,13.33%,4.309%,2.479%
CN1CCN(C(=O)CCc2cc(Br)cs2)CC1,1.274%,-3.222%,-1.333%,-0.02257%,0.578%
COCCn1c(=O)n(C)c(=O)c2ccc(C3CCN(C(C)=O)CC3)nc21,10.92%,24.28%,5.634%,-9.306%,6.061%
CS(=O)(=O)CCSC1CCN(c2ccccc2F)C1=O (configuration not stated),8.02%,-51.78%,19.78%,-8.639%,3.012%
Cc1csc(CNC(=O)N(C)Cc2cnn(C)c2)n1,3.231%,-9.2%,21.54%,18.15%,-0.3831%
CCC[C@@H]1CN(c2ncnc3ccsc23)C[C@H]1NS(C)(=O)=O,-0.1836%,6.566%,9.375%,0.3635%,3.867%
Cc1nc(CN2CCC(N(C)Cc3noc(C4CC4)n3)C2)oc1C (configuration not stated),1.446%,6.738%,28.12%,11.93%,4.183%
CNc1nc(C2CCCCN2C(=O)C(C)(C)OC)nc2c1CN(C)CC2 (configuration not stated),-7.728%,3.88%,18.84%,-6.266%,12.09%
N#Cc1ccc(OCCN2CCc3c(ncn3C3CC3)C2)cc1,0.1059%,-16.53%,32.88%,19.87%,7.634%
C=C(C)CN1CCN(Cc2cnc(-c3ccc(OC)cc3)nc2)CC1,-,-,10.34%,-12.48%,5.323%
OC(CN(Cc1ccccc1)Cc1cscn1)c1ccco1 (configuration not stated),10.8%,-3.939%,14.04%,1.237%,5.882%
O=C(O)C(F)(F)F.[H][C@]12CCN(C(C)=O)CC[C@@]1([H])S(=O)(=O)N(Cc1ccncc1)C2,33.95%,-41.13%,-,-,-
CN(Cc1noc2c1CCCC2)C(=O)Nc1ccc2oc(=O)n(C)c2c1,-20.52%,-57.52%,8.197%,-2.371%,3.004%
O=C(O)C(F)(F)F.[H][C@]12CCC[C@@]1(COCc1ccncc1)CN(C(=O)C1=CCCC1)C2,-8.239%,-42.29%,-,-,-
COC[C@@]12CC[C@@H](N3CCOCC3)C[C@H]1CCN(c1ncccc1F)C2,-,-,19.44%,1.966%,0%
OCCN1CCN(CC(O)c2ccc(C(F)(F)F)cc2)CC1 (configuration not stated),14.33%,-9.182%,18.99%,3.735%,3.017%
Cc1cnc(CN2CCN(C(C)c3nc(C)no3)CC2)cn1 (configuration not stated),-3.369%,-17.88%,-2.632%,-4.994%,10.34%
CCn1cc(NC(=O)c2cc(C)nc(N3CCOCC3)n2)cn1,48.82%,-24.47%,10.34%,1.86%,2.609%
CNC(=O)C1CCCCN1C(=O)C1CCN(S(C)(=O)=O)CC1 (configuration not stated),8.977%,4.842%,13.51%,15.88%,0%
COC(=O)c1cccc2nc([C@H]3CCN(CC(C)C)C3)oc12,-7.313%,-6.552%,21.62%,4.495%,-8.458%
Cc1cncc(C(=O)N2CCCC3(CCCN3S(C)(=O)=O)C2)c1 (configuration not stated),9.119%,-27.46%,11.84%,-1.884%,2.174%
CCS(=O)(=O)N1CCC(Oc2ccc(C#N)cc2)CC1,16.89%,-,-3.54%,-5.725%,3.509%
Cc1nc(N2CCN(C(=O)c3ccccc3)CC2)c2cnn(C)c2n1,-19.83%,5.718%,8.929%,-5.211%,4.07%
[H][C@@]12CCN(CCOC)C[C@@]1([H])[C@H](C(=O)Nc1cccnc1)CCO2,-26.17%,-7.449%,-,-,-
CC(C)c1nnc2n1CCN(c1nc3ccccc3o1)C2,0.6901%,-17.98%,-1.493%,-7.673%,4.255%
CCc1nc(CN(C)C2CCN(CCn3cc(C#N)cn3)C2)no1 (configuration not stated),0.8616%,-41.18%,2.381%,9.114%,1.504%
CC(C)c1nn(C)c(N(C)C)c1CNCc1ccnn1C,-1.979%,-15.46%,-4.386%,-4.937%,8.621%
Fc1cccc(CN2CCC(c3noc(-c4ccncc4)n3)CC2)c1F,6.137%,-,5.674%,-28.66%,4.135%

For reference, 5 entries once more:

O=C(O)C(F)(F)F.[H][C@]12CCN(C(C)=O)CC[C@@]1([H])S(=O)(=O)N(Cc1ccncc1)C2 gave A: 33.95%; B: -41.13%.
COc1cccc(-n2c(C)cc(C(=O)NC(C)(C)C(N)=O)c2C)c1 gave A: -22%; C: 22.03%; D: -4.66%; E: 2.286%.
Cc1cc(CN2C[C@@H]3COC[C@H](C(=O)N4CCCCO4)[C@@H]3C2)no1 gave C: 20%; D: -6.715%; E: 6.863%.
N#Cc1ccc(OCCN2CCc3c(ncn3C3CC3)C2)cc1 gave A: 0.1059%; B: -16.53%; C: 32.88%; D: 19.87%; E: 7.634%.
Cc1cnc(CN2CCN(C(C)c3nc(C)no3)CC2)cn1 (configuration not stated) gave A: -3.369%; B: -17.88%; C: -2.632%; D: -4.994%; E: 10.34%.

Source: ChEMBL document CHEMBL3988442, “University of Dundee, Small-Polar-MMV Screening Library” (2021).